Earlier results as cited in patent US20190144909A1, “METHODS OF MODULATING BCKDH” (NESTEC S.A., priority 2016, published 2019).

System: branched-chain alpha-keto acid dehydrogenase E1 A subunit (BCKDHA)
Conditions: Table 1b, from Comparative Toxicogenomics Database

SMILES: CCCCc1oc2ccccc2c1C(=O)c1cc(I)c(OCCN(CC)CC)c(I)c1 [Amiodarone, reference compound]
- Interaction Actions: increases expression
